Source: publication PMC12208130

Target: T1, PTK7 (receptor on HCT116 cells) (human (HCT116 colon cancer cells)) (UniProt Q13308)
T1 sequence: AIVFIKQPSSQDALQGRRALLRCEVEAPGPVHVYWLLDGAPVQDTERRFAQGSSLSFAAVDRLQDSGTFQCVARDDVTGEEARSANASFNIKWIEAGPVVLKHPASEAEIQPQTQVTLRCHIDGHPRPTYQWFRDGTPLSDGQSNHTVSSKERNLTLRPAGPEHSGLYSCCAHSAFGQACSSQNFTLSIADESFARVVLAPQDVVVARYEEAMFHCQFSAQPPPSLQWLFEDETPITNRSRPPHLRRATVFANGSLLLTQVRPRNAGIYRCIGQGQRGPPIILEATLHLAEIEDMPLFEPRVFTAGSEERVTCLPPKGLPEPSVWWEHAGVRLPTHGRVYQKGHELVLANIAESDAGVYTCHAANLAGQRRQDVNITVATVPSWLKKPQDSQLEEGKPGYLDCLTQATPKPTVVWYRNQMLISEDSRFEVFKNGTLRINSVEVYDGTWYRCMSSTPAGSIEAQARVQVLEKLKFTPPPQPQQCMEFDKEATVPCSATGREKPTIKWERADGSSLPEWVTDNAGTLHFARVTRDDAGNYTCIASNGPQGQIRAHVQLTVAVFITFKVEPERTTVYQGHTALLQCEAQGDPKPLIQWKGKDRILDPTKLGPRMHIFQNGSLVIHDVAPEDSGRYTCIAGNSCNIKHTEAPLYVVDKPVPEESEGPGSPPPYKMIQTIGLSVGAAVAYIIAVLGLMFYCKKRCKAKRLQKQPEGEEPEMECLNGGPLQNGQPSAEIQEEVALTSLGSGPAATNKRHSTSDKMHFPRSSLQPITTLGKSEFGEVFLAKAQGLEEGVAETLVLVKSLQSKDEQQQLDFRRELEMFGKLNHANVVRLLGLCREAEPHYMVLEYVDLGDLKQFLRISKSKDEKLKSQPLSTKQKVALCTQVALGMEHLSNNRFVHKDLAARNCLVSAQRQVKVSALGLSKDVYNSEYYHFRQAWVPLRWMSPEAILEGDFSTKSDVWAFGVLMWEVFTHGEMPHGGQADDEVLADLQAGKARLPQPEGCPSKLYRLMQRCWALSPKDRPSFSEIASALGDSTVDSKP
Assay: flow cytometry
Details: 250 nM aptamer (varied for Kd), 30 min at 4 C, DPBS with ~5 mM MgCl2, 0.1 mg/mL yeast tRNA, protein on the cell surface

ATCTAACTGCTGCGCCGCCGGGAAAATACTGTACGGTTAGA [Sgc8-6A]
binding result (nonspecific linear trend, lack of specific binding, weaker fluorescence at 250 nM, A6 = cordycepin (3'-deoxyadenosine), 2'-5' linkage, label: 3'-Cy5, synthetic backbone): no binding

ATCTAACTGATTATTATTATTATTATTATTATTCGGTTAGA [Lib (Lib-Sgc8-Cy5)]
binding result (250 nM, negative control, label: 3'-Cy5, single-stranded DNA): no binding

ATCTAACTGCTGCGCCGCCGGGAAAATACTGTACGGTTAGA [Sgc8-1A]
binding result (250 nM, fluorescence comparable to Sgc8c, Kd only in Fig. 3B, A1 = cordycepin (3'-deoxyadenosine), 2'-5' linkage, label: 3'-Cy5, synthetic backbone): binds

ATCTAACTGCTGCGCCGCCGGGAAAATACTGTACGGTTAGA [Sgc8-28A]
binding result (250 nM, fluorescence comparable to Sgc8c, Kd only in Fig. 3B, A28 = cordycepin (3'-deoxyadenosine), 2'-5' linkage, label: 3'-Cy5, synthetic backbone): binds

ATCTAACTGCTGCGCCGCCGGGAAAATACTGTACGGTTAGA [Sgc8-33A]
binding result (250 nM, fluorescence comparable to Sgc8c, Kd only in Fig. 3B, A33 = cordycepin (3'-deoxyadenosine), 2'-5' linkage, label: 3'-Cy5, synthetic backbone): binds

For at least one entry, the source does not settle the construct or the ends of the probe. Results from cells or extracts need not show a direct contact. Negatives hold for the conditions tested. At least one verdict rests on a figure or table, not on a statement of the authors.
